Experimental data: PubChem BioAssay AID248 (DTP/NCI, 2004)
The list is a part of this screen's results and no random one: it gathers tests that were run many times, whatever their T/C, doses with no T/C, and many T/C values between a quarter and a half above the control. Further doses and runs are listed elsewhere. T/C: endpoint of the treated group in % of that of the vehicle group. Some entries give survivors of the animals treated and no T/C: the source files T/C as zero there, which appears to mark a toxic dose or a test without result, not a measured value. Some survivor counts are full or nearly so, which does not show that the dose was tolerated: survival well below the control is almost never listed, so the zero probably covers shortened survival too. Counts of survivors are from the toxicity check (mostly the fifth day) where no day follows; animals may have died later. Schedules are NCI's codes, read here as Q, the interval in days (D) or hours (H), X, the number of doses. Where survival is the endpoint, the PubChem record calls one and a half times the control and up active, and a quarter to a half above the control has no call in these data; cut-offs in other NCI protocols can differ. Some entries hold several experiments; their values stand side by side, smallest first. Some T/C values are followed by the survivors on the day toxicity was checked, most often the fifth; where none is given, no animal had died by that day.

Test system: L1210 leukemia ip in BDF1 mice, survival T/C
Assay: NCI In Vivo Anticancer Drug Screen. Data for tumor model L1210 Leukemia (intraperitoneal) in B6D2F1 (BDF1) mice
Details: higher T/C = longer survival

O=C1C=CN(C2OC(CO)C(O)C2O)C(=O)C1 (configuration not stated)
T/C (T/C endpoint: mean survival time, dose: 225.0 mg/kg/injection, schedule: Q01DX009 (ip), vehicle: saline, evaluated on day 60): 132 % of control [9 of 10 alive] | T/C (T/C endpoint: mean survival time, dose: 250.0 mg/kg/injection, schedule: Q01DX005 (ip), vehicle: other): 130 % of control | T/C (T/C endpoint: mean survival time, dose: 300.0 mg/kg/injection, schedule: Q01DX009 (ip), vehicle: saline): 135 and 140 % of control | T/C (T/C endpoint: mean survival time, dose: 400.0 mg/kg/injection, schedule: Q01DX009 (ip), vehicle: saline): 139 % of control | T/C (T/C endpoint: median survival time, dose: 6.25 mg/kg/injection, schedule: Q01DX009 (ip), vehicle: saline): 127 % of control | T/C (T/C endpoint: median survival time, dose: 8.0 mg/kg/injection, schedule: Q03HX024 (ip), vehicle: saline): 127 % of control | T/C (T/C endpoint: median survival time, dose: 9.38 mg/kg/injection, schedule: Q01DX009 (ip), vehicle: saline, evaluated on day 5): 132 % of control | T/C (T/C endpoint: median survival time, dose: 9.38 mg/kg/injection, schedule: Q01DX009 (ip), vehicle: saline, evaluated on day 30): 132 % of control | T/C (T/C endpoint: median survival time, dose: 16.0 mg/kg/injection, schedule: Q03HX024 (ip), vehicle: saline): 128 % of control | T/C (T/C endpoint: median survival time, dose: 17.0 mg/kg/injection, schedule: Q03HX024 (ip), vehicle: saline): 138 % of control | T/C (T/C endpoint: median survival time, dose: 18.75 mg/kg/injection, schedule: Q01DX009 (ip), vehicle: saline, evaluated on day 5): 135 % of control | T/C (T/C endpoint: median survival time, dose: 18.75 mg/kg/injection, schedule: Q01DX009 (ip), vehicle: saline, evaluated on day 30): 135 % of control | T/C (T/C endpoint: median survival time, dose: 24.0 mg/kg/injection, schedule: Q01DX009 (ip), vehicle: saline): 133 % of control | T/C (T/C endpoint: median survival time, dose: 25.0 mg/kg/injection, schedule: Q01DX009 (ip), vehicle: saline, evaluated on day 54): 127 % of control | T/C (T/C endpoint: median survival time, dose: 25.0 mg/kg/injection, schedule: Q01DX009 (ip), vehicle: saline, evaluated on day 60): 133 % of control [7 of 8 alive] | T/C (T/C endpoint: median survival time, dose: 32.0 mg/kg/injection, schedule: Q01DX009 (ip), vehicle: saline): 126 % of control | T/C (T/C endpoint: median survival time, dose: 32.0 mg/kg/injection, schedule: Q03HX024 (ip), vehicle: saline): 132 % of control | T/C (T/C endpoint: median survival time, dose: 37.0 mg/kg/injection, schedule: Q01DX009 (ip), vehicle: saline): 133 % of control | T/C (T/C endpoint: median survival time, dose: 37.5 mg/kg/injection, schedule: Q01DX009 (ip), vehicle: saline, evaluated on day 5): 132 % of control | T/C (T/C endpoint: median survival time, dose: 37.5 mg/kg/injection, schedule: Q01DX009 (ip), vehicle: saline, evaluated on day 30): 132 % of control | T/C (T/C endpoint: median survival time, dose: 39.0 mg/kg/injection, schedule: Q03HX024 (ip), vehicle: saline): 144 % of control | T/C (T/C endpoint: median survival time, dose: 48.0 mg/kg/injection, schedule: Q01DX009 (oral), vehicle: saline): 144 % of control | T/C (T/C endpoint: median survival time, dose: 50.0 mg/kg/injection, schedule: Q01DX009 (ip), vehicle: saline, evaluated on day 54): 133 % of control | T/C (T/C endpoint: median survival time, dose: 50.0 mg/kg/injection, schedule: Q01DX009 (ip), vehicle: saline, evaluated on day 60): 138 % of control | T/C (T/C endpoint: median survival time, dose: 55.0 mg/kg/injection, schedule: Q01DX009 (ip), vehicle: saline): 144 % of control | T/C (T/C endpoint: median survival time, dose: 58.0 mg/kg/injection, schedule: Q03HX024 (ip), vehicle: saline): 144 % of control | T/C (T/C endpoint: median survival time, dose: 64.0 mg/kg/injection, schedule: Q01DX009 (ip), vehicle: saline): 128 % of control | T/C (T/C endpoint: median survival time, dose: 64.0 mg/kg/injection, schedule: Q01DX009 (oral), vehicle: saline): 132 and 135 % of control | T/C (T/C endpoint: median survival time, dose: 64.0 mg/kg/injection, schedule: Q03HX024 (ip), vehicle: saline): 135 % of control | T/C (T/C endpoint: median survival time, dose: 75.0 mg/kg/injection, schedule: Q01DX009 (ip), vehicle: saline, evaluated on day 5): 135 % of control | T/C (T/C endpoint: median survival time, dose: 75.0 mg/kg/injection, schedule: Q01DX009 (ip), vehicle: saline, evaluated on day 30): 135 % of control [7 of 8 alive] | T/C (T/C endpoint: median survival time, dose: 82.0 mg/kg/injection, schedule: Q01DX009 (ip), vehicle: saline): 144 % of control | T/C (T/C endpoint: median survival time, dose: 88.0 mg/kg/injection, schedule: Q03HX024 (ip), vehicle: saline): 144 % of control | T/C (T/C endpoint: median survival time, dose: 100.0 mg/kg/injection, schedule: Q01DX009 (ip), vehicle: saline, evaluated on day 54): 144 % of control | T/C (T/C endpoint: median survival time, dose: 100.0 mg/kg/injection, schedule: Q01DX009 (ip), vehicle: saline, evaluated on day 60): 144 % of control | T/C (T/C endpoint: median survival time, dose: 124.0 mg/kg/injection, schedule: Q01DX009 (ip), vehicle: saline): 144 % of control | T/C (T/C endpoint: median survival time, dose: 128.0 mg/kg/injection, schedule: Q01DX009 (oral), vehicle: saline): 135 % of control | T/C (T/C endpoint: median survival time, dose: 128.0 mg/kg/injection, schedule: Q01DX009 (sc), vehicle: saline): 134 % of control | T/C (T/C endpoint: median survival time, dose: 128.0 mg/kg/injection, schedule: Q03HX024 (ip), vehicle: saline): 134 % of control | T/C (T/C endpoint: median survival time, dose: 150.0 mg/kg/injection, schedule: Q01DX009 (ip), vehicle: saline, evaluated on day 5): 145 % of control | T/C (T/C endpoint: median survival time, dose: 150.0 mg/kg/injection, schedule: Q01DX009 (ip), vehicle: saline, evaluated on day 30): 145 % of control | T/C (T/C endpoint: median survival time, dose: 200.0 mg/kg/injection, schedule: Q01DX009 (ip), vehicle: saline, evaluated on day 54): 144 % of control | T/C (T/C endpoint: median survival time, dose: 200.0 mg/kg/injection, schedule: Q01DX009 (ip), vehicle: saline, evaluated on day 60): 144 % of control | T/C (T/C endpoint: median survival time, dose: 256.0 mg/kg/injection, schedule: Q01DX009 (sc), vehicle: saline): 133 % of control | T/C (T/C endpoint: median survival time, dose: 300.0 mg/kg/injection, schedule: Q01DX009 (ip), vehicle: saline, evaluated on day 5): 148 % of control | T/C (T/C endpoint: median survival time, dose: 300.0 mg/kg/injection, schedule: Q01DX009 (ip), vehicle: saline, evaluated on day 30): 148 % of control | T/C (T/C endpoint: median survival time, dose: 390.0 mg/kg/injection, schedule: Q04DX003 (ip), vehicle: saline): 133 % of control | T/C (T/C endpoint: median survival time, dose: 400.0 mg/kg/injection, schedule: Q01DX009 (ip), vehicle: saline): 144 % of control | T/C (T/C endpoint: median survival time, dose: 512.0 mg/kg/injection, schedule: Q01DX009 (ip), vehicle: saline): 132 % of control | T/C (T/C endpoint: median survival time, dose: 512.0 mg/kg/injection, schedule: Q01DX009 (sc), vehicle: saline): 131 % of control | T/C (T/C endpoint: median survival time, dose: 512.0 mg/kg/injection, schedule: Q04DX003 (oral), vehicle: saline): 132 % of control | T/C (T/C endpoint: median survival time, dose: 880.0 mg/kg/injection, schedule: Q04DX003 (ip), vehicle: saline): 127 % of control | survivor count (T/C endpoint: median survival time, dose: 1024.0 mg/kg/injection, schedule: Q01DX009 (oral), vehicle: saline): 9 of 10 | T/C (T/C endpoint: median survival time, dose: 1024.0 mg/kg/injection, schedule: Q04DX003 (ip), vehicle: saline): 132 % of control | T/C (T/C endpoint: median survival time, dose: 1024.0 mg/kg/injection, schedule: Q04DX003 (oral), vehicle: saline): 129 and 130 % of control | T/C (T/C endpoint: median survival time, dose: 1024.0 mg/kg/injection, schedule: Q04DX003 (sc), vehicle: saline): 125 % of control | T/C (T/C endpoint: median survival time, dose: 2048.0 mg/kg/injection, schedule: Q04DX003 (oral), vehicle: saline): 131 and 135 % of control
